In patent US20070172470A1, “Phosphatase regulation of nucleic acid transcription” (The Regents of the University of California, priority 2003, published 2007):
Results are given in words; binding and its absence hold for the method and conditions named. Some results given as binding are weak or reduced against the parent protein; the word gives no strength. Where a sequence is shown, tags or fusion partners need not be part of it.

The chains behind the UniProt entries cited, without tags or fusion partners.
UniProt P35269: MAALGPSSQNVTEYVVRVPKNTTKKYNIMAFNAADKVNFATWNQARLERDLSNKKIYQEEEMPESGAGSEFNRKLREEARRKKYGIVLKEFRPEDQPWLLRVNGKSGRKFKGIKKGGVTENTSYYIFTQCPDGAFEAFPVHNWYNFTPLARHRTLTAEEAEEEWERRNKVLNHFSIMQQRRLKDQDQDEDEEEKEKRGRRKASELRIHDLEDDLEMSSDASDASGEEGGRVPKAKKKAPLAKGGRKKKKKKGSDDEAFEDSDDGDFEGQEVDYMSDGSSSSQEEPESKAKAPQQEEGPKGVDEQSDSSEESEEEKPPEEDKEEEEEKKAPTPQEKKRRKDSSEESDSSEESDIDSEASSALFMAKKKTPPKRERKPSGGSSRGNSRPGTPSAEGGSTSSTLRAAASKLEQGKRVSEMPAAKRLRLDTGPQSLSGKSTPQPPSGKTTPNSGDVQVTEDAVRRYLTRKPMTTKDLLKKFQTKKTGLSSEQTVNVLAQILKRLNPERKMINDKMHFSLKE

Biological target: T1, GST-SCP1 (human) (UniProt Q9GZU7)
T1 sequence: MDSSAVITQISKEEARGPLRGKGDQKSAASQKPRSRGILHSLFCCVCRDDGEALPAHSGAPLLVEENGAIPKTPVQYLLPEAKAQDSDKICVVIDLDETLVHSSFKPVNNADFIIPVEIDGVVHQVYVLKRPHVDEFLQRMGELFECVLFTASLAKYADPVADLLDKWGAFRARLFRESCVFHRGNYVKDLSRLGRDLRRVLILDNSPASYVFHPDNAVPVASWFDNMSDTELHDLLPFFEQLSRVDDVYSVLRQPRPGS
Test: direct binding to GST fusion protein; method not described

binding: binds
Substance: RAP74 (from UniProt P35269 1-517)
